Measurements published in patent US20250270315A1.
Substitutions are numbered along the chain they refer to. No constants are given. Whether binding was seen depends on the method and setting. Some binding calls cover weakened binding; strength is not graded here.

The chains behind the UniProt entries cited, without tags or fusion partners. Where a name states a change or a piece, a line headed by the entry shows the natural chain unless it says otherwise. A line that says so, or that is headed by a name, gives the form on record, which may keep a tag or linker. Residues count along the entry.
UniProt P78324: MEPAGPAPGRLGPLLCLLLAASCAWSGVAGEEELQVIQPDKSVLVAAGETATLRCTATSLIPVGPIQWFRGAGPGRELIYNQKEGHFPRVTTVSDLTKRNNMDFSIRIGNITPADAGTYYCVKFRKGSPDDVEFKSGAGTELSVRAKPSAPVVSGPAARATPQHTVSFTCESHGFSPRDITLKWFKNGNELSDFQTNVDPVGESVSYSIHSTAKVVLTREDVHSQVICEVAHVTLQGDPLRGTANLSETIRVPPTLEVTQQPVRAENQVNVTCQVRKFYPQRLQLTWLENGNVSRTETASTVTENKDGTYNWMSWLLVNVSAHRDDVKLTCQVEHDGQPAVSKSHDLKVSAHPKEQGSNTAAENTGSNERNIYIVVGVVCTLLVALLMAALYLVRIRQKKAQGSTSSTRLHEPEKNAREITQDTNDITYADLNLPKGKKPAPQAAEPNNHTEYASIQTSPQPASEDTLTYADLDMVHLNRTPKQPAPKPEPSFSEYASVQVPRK
full length human SIRPα v1 stably expressed on CHOK1 or 293F cells: residues 31-504 of P78324
UniProt O00241: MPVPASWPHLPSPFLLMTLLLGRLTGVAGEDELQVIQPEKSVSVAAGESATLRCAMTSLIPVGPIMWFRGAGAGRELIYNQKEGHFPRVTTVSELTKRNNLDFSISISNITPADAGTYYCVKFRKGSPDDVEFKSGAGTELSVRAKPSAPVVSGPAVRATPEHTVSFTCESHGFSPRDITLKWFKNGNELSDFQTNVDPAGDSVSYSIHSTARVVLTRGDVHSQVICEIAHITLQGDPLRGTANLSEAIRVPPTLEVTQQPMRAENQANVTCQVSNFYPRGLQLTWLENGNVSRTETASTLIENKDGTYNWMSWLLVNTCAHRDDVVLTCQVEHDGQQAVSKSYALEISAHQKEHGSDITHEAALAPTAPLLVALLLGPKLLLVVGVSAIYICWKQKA
human SIRPβ stably expressed on CHOK1 cells: residues 30-398 of O00241
human SIRPβ ECD recombinant protein (6×His tagged): residues 30-371 of O00241
UniProt Q5TFQ8: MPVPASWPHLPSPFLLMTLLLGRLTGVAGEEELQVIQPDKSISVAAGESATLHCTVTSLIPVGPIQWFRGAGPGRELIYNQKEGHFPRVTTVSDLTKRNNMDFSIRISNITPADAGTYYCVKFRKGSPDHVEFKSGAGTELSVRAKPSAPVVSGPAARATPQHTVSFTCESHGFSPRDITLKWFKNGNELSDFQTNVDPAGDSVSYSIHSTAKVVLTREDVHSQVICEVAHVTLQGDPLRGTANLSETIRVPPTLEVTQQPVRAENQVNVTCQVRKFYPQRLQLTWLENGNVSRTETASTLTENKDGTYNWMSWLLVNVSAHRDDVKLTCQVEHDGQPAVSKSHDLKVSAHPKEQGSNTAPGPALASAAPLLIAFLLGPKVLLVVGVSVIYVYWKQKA
UniProt Q9P1W8, residues 29-387: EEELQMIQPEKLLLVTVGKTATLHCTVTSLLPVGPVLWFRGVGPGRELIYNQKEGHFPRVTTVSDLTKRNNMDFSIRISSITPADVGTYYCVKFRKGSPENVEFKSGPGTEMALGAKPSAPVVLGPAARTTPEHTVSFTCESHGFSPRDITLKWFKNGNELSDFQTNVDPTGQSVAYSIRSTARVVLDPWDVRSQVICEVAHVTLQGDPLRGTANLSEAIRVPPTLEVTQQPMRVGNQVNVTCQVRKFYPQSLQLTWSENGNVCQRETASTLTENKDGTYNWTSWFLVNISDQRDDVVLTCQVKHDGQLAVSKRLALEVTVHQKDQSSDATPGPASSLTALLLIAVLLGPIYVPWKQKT

Columns and labels:
[1] = target: full length human SIRPα v1 stably expressed on CHOK1 or 293F cells (human) (UniProt P78324); test: FACS, CHOK1 cells stably expressing human SIRPα v1
[2] = target: human SIRPβ ECD recombinant protein (6×His tagged) (human) (UniProt O00241); test: ELISA, recombinant human SIRPβ ECD
[3] = target: full length human SIRPα v1 stably expressed on CHOK1 or 293F cells (human) (UniProt P78324); test: competitive FACS, CHOK1 cells expressing human SIRPα v1, blocked ligand mFc tagged human CD47 ECD
[4] = target: human SIRPβL ECD recombinant protein (6×His tagged) (human) (UniProt Q5TFQ8); test: ELISA, human SIRPβI ECD
[5] = target: human SIRPγ stably expressed on 293F cells (human) (UniProt Q9P1W8); test: FACS, 293F cells stably expressing human SIRPγ
[6] = target: human SIRPβ ECD recombinant protein (6×His tagged) (human) (UniProt O00241); test: ELISA, human SIRPβ ECD
[7] = target: human SIRPγ stably expressed on 293F cells (human) (UniProt Q9P1W8); test: FACS, 293F-human SIRPγ cells
[8] = target: human SIRPα v1 ECD recombinant protein (tag not given) (human) (UniProt P78324); test: competitive ELISA, coated human SIRPα v1 ECD, blocked ligand mFc tagged human CD47 ECD
[9] = target: human SIRPβL ECD recombinant protein (6×His tagged) (human) (UniProt Q5TFQ8); test: ELISA, recombinant human SIRPβL (SIRPβI) ECD
[10] = target: human SIRPβ stably expressed on CHOK1 cells (human) (UniProt O00241); test: FACS, CHOK1-human SIRPβ cells
[11] = target: human SIRPβ stably expressed on CHOK1 cells (human) (UniProt O00241); test: FACS, CHOK1 cells stably expressing human SIRPβ
[12] = target: full length human SIRPα v1 stably expressed on CHOK1 or 293F cells (human) (UniProt P78324); test: FACS, CHOK1-human SIRPα v1 cells

Measured: binding

B1: hu1H9G4 (antibody, V domains shown)
VH: QVQLVQSGAEVKKPGASVKVSCKASGYTFTSYWITWVKQAPGQGLEWIGDIYPGSGSTNHIEKFKSKATLTVDTSISTAYMELSRLRSDDTAVYYCATGYGSSYGYFDYWGQGTLVTVSS
VL: DIQMTQSPSSLSASVGDRVTITCRASENIYSYLAWYQQKPGKAPKLLIYTAKTLAEGVPSRFSGSGSGTDFTLTISSLQPEDFATYYCQHQYGPPFTFGQGTKLELK
binds: all assays above

B2: 025c (antibody, V domains shown)
VH: EVQLQQSGAELVKPGASVKLSCTASGFNIKDYYMHWVKQRTEQGLEWIGRIDPEDGETKYAPKFQGKATITADTSSNTAYLQLSSLTSEDTAVYYCDRGLAYWGQGTLVTVSA
VL: QIVLTQSPAIMSASPGEKVTLTCSASSSVSSSYLYWYQQKPGSSPKLWIYSTSNLASGVPARFSGSGSGTSYSLTISSMEAEDAASYFCHQWSSYPYTFGGGTKLEIK
binds: [4] | [9]

B3: 042c (antibody, V domains shown)
VH: QIQLVQSGPELKKPGETVKISCRASGYTFTTYGMSWVKQAPGKGLRWMGWINTYSGVSTCADDFKGRFAFSLETSATTAYLQIHNLTNEDTATYFCARDPHSYGNSPAWFPYWGQGTLVTVSA
VL: DIVMTQSQKFMSTTIRDRVSITCKASQNVGISVAWYQQKSGQSPKLLIYSASNRYTGVPDRFTGSGSGTDFTLTISNMQSEDLADYFCQQYSSYPLTFGSGTKLAIK
binds: [4] | [9]

B4: 071c (antibody, V domains shown)
VH: QIQLVQSGPELKKPGETVKISCKASGYTFTTYGMSWVKQAPGKGLKWMVWINTYSGVPTYADDFQGRFAFSLETSASTSYLQINNLRNEDTATYFCARDPHYYGTSPAWFAYWGQGTLVTVSA
VL: B3 VL with R16G, S20I, N28I, S32A, S40P, Y55F, S93T, L96F, A105E
binds: [4] | [9]

B5: 073c (antibody, V domains shown)
VH: B4 VH with Q65K, R87K, T105S, A111V
VL: B3 VL with R16G, K24E, N28I, S32A, S40P, D85N, S93A, L96F, A105E, I106V
binds: [4] | [9]

B6: 015c (antibody, V domains shown)
VH: EVQLQQSGVEVVQPGASVKLSCTASGFNIEAYYMHWVKQRTEQGLEWIGRIDPEDGESKYAPKFQGKATMTADTSSSTAYLQLSSLTSDDTAVYYCVRGSYEYWGQGTTLTVSS
VL: B2 VL with A61P, E80Q, H90Y
binds: [4] | [9]

B7: 059c (antibody, V domains shown)
VH: QVQLQQSGPELVKPGASVKMSCKASGYTFSEYVLSWVKQRTGQGLEWIGEIYPGTITTYYNEKFKGKATLTADKSSNTAYIQLTSLTSEDSAVYFCGRFYDYDGGWFAYWGQGTLLTVSA
VL: ENVLTQSPEKMAVSLGQKVTMTCSASSSVSSSDLHWYQQKSGASPKPLIHGTSNLASGVPARFSGSGSGTSYSLTISSVEAEDAATYYCQQWSGYPWTFGGGTNLEIK
binds: [4] | [9]
